Experimental data reported in article PMC8091128.
Results are given in words; binding and its absence hold for the method and conditions named. Some results given as binding are weak or reduced against the parent protein; the word gives no strength.

By UniProt entry, the sequences of proteins in these tests, tags left out. Where a name states a change or a piece, a line headed by the entry shows the natural chain unless it says otherwise. Residues count along the entry.
UniProt P12830, residues 731-882: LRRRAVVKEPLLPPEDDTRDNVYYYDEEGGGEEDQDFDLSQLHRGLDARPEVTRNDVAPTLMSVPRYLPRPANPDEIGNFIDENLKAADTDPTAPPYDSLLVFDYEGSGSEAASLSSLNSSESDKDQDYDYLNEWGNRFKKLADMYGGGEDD
UniProt P35222: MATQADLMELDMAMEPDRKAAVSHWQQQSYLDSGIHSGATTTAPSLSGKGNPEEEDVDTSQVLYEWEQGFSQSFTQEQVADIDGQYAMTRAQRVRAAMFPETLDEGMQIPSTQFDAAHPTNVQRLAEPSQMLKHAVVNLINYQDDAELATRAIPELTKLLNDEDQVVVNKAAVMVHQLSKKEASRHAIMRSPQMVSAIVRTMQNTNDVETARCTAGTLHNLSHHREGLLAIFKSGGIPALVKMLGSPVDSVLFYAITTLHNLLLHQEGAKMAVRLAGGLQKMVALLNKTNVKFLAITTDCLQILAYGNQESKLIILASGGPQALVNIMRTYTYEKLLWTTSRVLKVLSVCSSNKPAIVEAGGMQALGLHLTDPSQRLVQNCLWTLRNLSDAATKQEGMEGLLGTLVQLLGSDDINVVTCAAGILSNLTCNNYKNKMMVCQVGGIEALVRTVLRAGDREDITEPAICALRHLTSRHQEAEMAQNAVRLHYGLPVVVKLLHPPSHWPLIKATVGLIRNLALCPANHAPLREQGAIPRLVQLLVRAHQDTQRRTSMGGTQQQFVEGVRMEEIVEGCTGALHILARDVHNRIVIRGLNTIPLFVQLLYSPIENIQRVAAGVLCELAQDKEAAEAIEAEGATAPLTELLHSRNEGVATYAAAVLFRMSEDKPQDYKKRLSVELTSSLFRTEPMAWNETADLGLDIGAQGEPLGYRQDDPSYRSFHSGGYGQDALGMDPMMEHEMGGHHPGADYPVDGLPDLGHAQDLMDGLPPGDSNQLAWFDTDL

Tests used:
Experiment in all cases: pull-down; GST-fusion protein on glutathione-Sepharose beads, with or without PAK1 kinase domain and cold ATP (5 min, 30°C), then cleaved proteins (0.05 and 0.1 µg) in phosphorylation buffer (50 mM Hepes pH 7.3, 10 mM MgCl2, 10 mM NaF, 2 mM MnCl2) with 0.3 M NaCl and 0.5% Triton X-100, 30 min at 4°C; both purified
[1] = molecular target: GST–E-cadherin cytoplasmic tail (UniProt P12830)
[2] = molecular target: GST–E-cadherin cytoplasmic tail phosphorylated by PAK1 (UniProt P12830)
[3] = molecular target: GST–β-catenin S675A (UniProt P35222)
[4] = molecular target: GST–β-catenin S675D (UniProt P35222)
[5] = molecular target: GST–β-catenin WT (UniProt P35222)

| Substance | binding [1] | binding [2] | binding [3] | binding [4] | binding [5] |
| --- | --- | --- | --- | --- | --- |
| β-catenin (cleaved from GST–β-catenin) (from UniProt P35222 1-781) | binds | binds |  |  |  |
| recombinant E-cadherin cytoplasmic tail (in solution) (from UniProt P12830 731-882) (domain or fragment) |  |  | binds | binds | binds |
